Data: publication PMC9976908
No constants are given. Whether binding was seen depends on the method and setting. Some entries that bind do so weakly or less than the wild type.

Biological target: T1, C. elegans Drosha (C. elegans) (UniProt O01326)
T1 sequence: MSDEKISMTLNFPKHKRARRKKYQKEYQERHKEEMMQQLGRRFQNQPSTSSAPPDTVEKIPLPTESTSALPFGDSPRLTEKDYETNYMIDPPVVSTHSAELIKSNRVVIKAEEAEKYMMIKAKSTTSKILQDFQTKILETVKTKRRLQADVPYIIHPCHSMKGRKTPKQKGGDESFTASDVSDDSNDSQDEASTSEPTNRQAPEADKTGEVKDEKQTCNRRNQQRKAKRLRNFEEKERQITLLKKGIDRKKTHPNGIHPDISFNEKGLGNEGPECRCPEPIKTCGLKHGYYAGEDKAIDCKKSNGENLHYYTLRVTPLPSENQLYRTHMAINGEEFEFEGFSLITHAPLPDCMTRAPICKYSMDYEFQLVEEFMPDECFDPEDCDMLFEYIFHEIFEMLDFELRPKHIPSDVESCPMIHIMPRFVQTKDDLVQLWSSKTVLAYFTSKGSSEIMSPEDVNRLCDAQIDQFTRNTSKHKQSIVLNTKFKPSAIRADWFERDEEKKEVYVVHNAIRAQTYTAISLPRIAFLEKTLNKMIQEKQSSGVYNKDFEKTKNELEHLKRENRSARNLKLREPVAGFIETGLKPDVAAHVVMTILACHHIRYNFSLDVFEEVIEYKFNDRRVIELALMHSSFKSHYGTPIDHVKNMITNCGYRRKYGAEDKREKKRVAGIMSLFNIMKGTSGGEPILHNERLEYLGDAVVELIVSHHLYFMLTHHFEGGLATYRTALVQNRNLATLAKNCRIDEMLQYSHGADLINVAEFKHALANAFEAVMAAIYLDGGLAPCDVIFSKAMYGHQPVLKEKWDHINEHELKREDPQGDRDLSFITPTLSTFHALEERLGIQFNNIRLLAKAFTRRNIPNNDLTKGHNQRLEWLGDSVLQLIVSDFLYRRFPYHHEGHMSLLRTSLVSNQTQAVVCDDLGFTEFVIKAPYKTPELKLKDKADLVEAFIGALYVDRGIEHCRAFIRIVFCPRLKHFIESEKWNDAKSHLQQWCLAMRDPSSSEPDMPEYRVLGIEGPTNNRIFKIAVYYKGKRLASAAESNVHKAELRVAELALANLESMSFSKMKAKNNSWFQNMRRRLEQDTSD
Assay: co-purification of a recombinant complex; the two proteins were purified together as one complex for cleavage assays; purification as previously described (refs 35, 28, 36); no details given here

B1: human DGCR8 (protein, UniProt Q8WYQ5 1-773)
chain: METDESPSPLPCGPAGEAVMESRARPFQALPREQSPPPPLQTSSGAEVMDVGSGGDGQSELPAEDPFNFYGASLLSKGSFSKGRLLIDPNCSGHSPRTARHAPAVRKFSPDLKLLKDVKISVSFTESCRSKDRKVLYTGAERDVRAECGLLLSPVSGDVHACPFGGSVGDGVGIGGESADKKDEENELDQEKRVEYAVLDELEDFTDNLELDEEGAGGFTAKAIVQRDRVDEEALNFPYEDDFDNDVDALLEEGLCAPKKRRTEEKYGGDSDHPSDGETSVQPMMTKIKTVLKSRGRPPTEPLPDGWIMTFHNSGVPVYLHRESRVVTWSRPYFLGTGSIRKHDPPLSSIPCLHYKKMKDNEEREQSSDLTPSGDVSPVKPLSRSAELEFPLDEPDSMGADPGPPDEKDPLGAEAAPGALGQVKAKVEVCKDESVDLEEFRSYLEKRFDFEQVTVKKFRTWAERRQFNREMKRKQAESERPILPANQKLITLSVQDAPTKKEFVINPNGKSEVCILHEYMQRVLKVRPVYNFFECENPSEPFGASVTIDGVTYGSGTASSKKLAKNKAARATLEILIPDFVKQTSEEKPKDSEELEYFNHISIEDSRVYELTSKAGLLSPYQILHECLKRNHGMGDTSIKFEVVPGKNQKSEYVMACGKHTVRGWCKNKRVGKQLASQKILQLLHPHVKNWGSLLRMYGRESSKMVKQETSDKSVIELQQYAKKNKPNLHILSKLQEEMKRLAEEREETRKKPKMSIVASAQPGGEPLCTVDV
- binding: binds
